Experimental data as given in patent US6818647B2, “Method and composition for restoring diuretic and renal function” (CV Therapeutics, Inc, priority 1998, dated 2004).
“Also recorded” adds a separate entry of the source.

Tests used:
Male Sprague-Dawley rats [1] = test: Sustained i.v. infusion of diuretics in conscious catheterised rats: dose response, combinations, renal clearance (Example 2); assay type: in vivo, rat
Procedure: Male Sprague-Dawley rats were obtained from Charles River Labs (Wilmington, Del.). They were housed in a light-controlled room with a 12 h light/dark cycle and were allowed ad libitum access to food and water.
Catheters were implanted in the abdominal aorta and vena cava via the left femoral artery and vein under a mixture of ketamine hydrochloride (50 mg/kg) and acepromazine (0.2 mg/kg, i.m.) anesthesia. An additional medical grade Tygon tubing was placed in the he stomach at the left extremity of the greater curvature. A silastic-covered stainless steel cannula was implanted in the bladder. Details of surgery, pre and post-surgical care and the experimental set-ups have been described in detail previously (87). Experiments were conducted 4-5 days following surgery, by which time the rats had fully recovered and were gaining weight. During the recovery, the rats were housed individually and were accustomed to a plastic retainer (model ECU, Braintree Scientific, Inc., Braintree, Mass.).
Between 8:00-9:00 AM, rats were weighed and placed in the restrainer. The arterial line was connected to a Gilson polygraph via a Gould pressure transducer for the recording of blood pressure (MAP) and heart rate (HR); the venous line to infusion pumps for the infusion of vehicle and test agents; and the stomach tube to a 10 or 20 cc syringe to allow for the replacement of excess urinary loss. […]
Urinary and plasma concentrations of […] and PAH were determined by spectrophotometry, electrolyte concentrations were measured using the Synchron ASB Clinical System (Beckman Instr. Inc., Brea, Calif.) and osmolality by an automatic osmometer (Model 2430, Precision Systems, Inc., Natick, Mass.). Renal clearance values were calculated using standard clearance formulae and expressed per 100 g body weight.
All values represent maximal changes, expressed as absolute values, and are reported throughout as group means+−SEM. Data from the does-response studies (groups 1-5) were analyzed using an analysis of variance for repeated measures, post-hoc comparisons were made with the Schette f-test. […]

Male Sprague-Dawley rats [2] = test: Renal function of anesthetized rats after 0-3 days of furosemide, before and after BG9719 IV (Example 7); assay type: in vivo, rat; settings: after 2 and 3 days of furosemide 100 mg/kg orally
Procedure: Twenty four hours after their last dose, they were anesthetized and instrumented to measure renal function and hemodynamics.
We collected a 30 minute baseline urine and determined basal sodium excretion in these rats.
Twenty-four hours after the last dose was administered, the rats were anesthetized and instrumented to measure renal function. […] Urine was collected via an implanted bladder catheter.

[3] = system: patients with NYHA Class II or III CHF; test: Renal function in CHF patients after single intravenous dose (Example 1); settings: 0-2 hours, mean, single i.v. dose
[4] = renal clearance study, BG9719 1 or FUR 10 μg/kg/min i.v. for 90 min

NS(=O)(=O)c1cc(C(=O)O)c(NCc2ccco2)cc1Cl [furosemide]
absolute and fractional excretions of sodium (Male Sprague-Dawley rats [1]; [4]): increased
fractional excretion of potassium (Male Sprague-Dawley rats [1]; [4]): increased
Potassium excretion (Male Sprague-Dawley rats [1]; sustained i.v. infusion, dose response, single agents): significantly increased
basal sodium excretion (Male Sprague-Dawley rats [2]): continues to decrease; also recorded: basically excreting no sodium
NA + excretion [3]: increased
NA + excretion ([3]; listed as Furosemide): 103 mEq
